# In patent publication US6872827B2, “Somatostatin analogue compounds” (Chembridge Research Laboratories, Inc., priority 2002, dated 2005):
# At least one read-out could not be matched to a standard name with certainty.
# Target: T1, Sst5 (Cavia porcellus, UniProt H0W1F1)
# T1 sequence (H0W1F1 1-365): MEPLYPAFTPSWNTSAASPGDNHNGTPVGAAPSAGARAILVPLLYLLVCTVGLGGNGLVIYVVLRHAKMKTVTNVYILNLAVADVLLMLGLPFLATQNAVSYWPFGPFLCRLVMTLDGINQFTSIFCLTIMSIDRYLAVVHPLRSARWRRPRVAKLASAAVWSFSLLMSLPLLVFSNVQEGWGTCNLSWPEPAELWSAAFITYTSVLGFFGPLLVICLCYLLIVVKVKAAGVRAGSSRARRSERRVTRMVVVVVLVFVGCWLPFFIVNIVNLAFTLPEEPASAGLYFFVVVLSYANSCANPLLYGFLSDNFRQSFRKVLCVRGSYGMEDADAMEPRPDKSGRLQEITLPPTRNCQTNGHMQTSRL
# Test: Sst5 (functional) assay, Vas def gp
# Conditions: Table 4, read-out: EC50/ IC50
smiles,measurement,value
"CN1C(=O)N(Cc2c[nH]c3ccccc23)C(=O)C12CCN(C(=O)CCCN)c1cc(Oc3ccccc3)ccc12 (stereo not shown) [Compound A, 7-phenoxy-3,4-dihydro-2H-quinoline-1-(4-amino-butanonyl)-4-spiro-5′-1′-methyl-3′-(1H-indol-3-ylmethyl)-imidazolidine-2′,4′-dione]",EC50,19.4 µM
